Assay results reported in article PMC9346113, “Therapeutic impact of BET inhibitor BI 894999 treatment: backtranslation from the clinic” (British Journal of Cancer, 2022).

System: T1, BRD4-NUT
T1 construct: endogenous in cells; host or cells: Ty-82 NUT carcinoma cells
Experiment: Immunofluorescence staining of NUT megadomains, Ty-82
Assay type: cell-based, human
Details: 30 min treatment
Method: Cells were seeded on four-well chamber slides (Merck Millipore, #PEZGS0416). After treatment, cells were fixed with 4% PFA (16% Solution, Thermo Fischer #28908 Paraformaldehyde, diluted 1:4 in PBS), permeabilised with 0,1% TX-100 (Sigma #93443, diluted in PBS). After blocking in blocking buffer (10% normal goat serum, Sigma #G9023–10ml, diluted in blocking solution: 2% BSA/PBS, Sigma #A7284–50ml, diluted 1:15 in PBS), the first antibody mAB rabbit anti-NUT 1:1000 (clone C52B1, Cell Signaling #3625) in blocking buffer was added, followed by incubation with the 2nd antibody goat anti-rabbit Alexa*488 1:1000 (Thermo Fisher, #A-11008) in blocking buffer in the dark. Cells were mounted with ProLong Gold Antifade Mountant with DAPI (Thermo Fisher, #P36931) and analysed using a Laser scanning microscope (LSM700).
[…] Upper row: antibody against NUT, lower row: DAPI.
Immunofluorescence staining of NUT megadomains on NC Ty-82 treated with BI with BI 894999 30nM for 1 h, then changed to 10 nM or 5 nM or 2.5 nM or control for 24 h.

CCNC(=O)C[C@@H]1N=C(c2ccc(Cl)cc2)c2cc(OC)ccc2-n2c(C)nnc21 [GSK525762]
concentration at which BRD4-NUT detaches from chromatin / is re-distributed: 1000 nM
